Results from patent US9844599B2, “Nitric oxide releasing produgs of therapeutic agents” (priority 2013, dated 2017).

Assay: in vivo
Details: male, Sprague-Dawley, rat

COc1ccc2cc([C@H](C)C(=O)O)ccc2c1 [Naproxen, naproxen]
concentration at 2 h: > 30000 ng/mL | concentration at 4 h: > 20000 ng/mL | concentration at 8 h: < 15000 ng/mL | Tmax (po, 10 mg/kg): < 15 min
